According to article PMC11116810:
These are yes or no findings as the source states them, for the method shown. In cells and extracts the contact can be indirect. These calls come from enrichment with a bait or labelling near it, and not all partners need be listed. For some assays here: No binding means not detected with the bait.

Protein sequences, listed by entry. Tags and fused reporters are not part of them.
UniProt P84077: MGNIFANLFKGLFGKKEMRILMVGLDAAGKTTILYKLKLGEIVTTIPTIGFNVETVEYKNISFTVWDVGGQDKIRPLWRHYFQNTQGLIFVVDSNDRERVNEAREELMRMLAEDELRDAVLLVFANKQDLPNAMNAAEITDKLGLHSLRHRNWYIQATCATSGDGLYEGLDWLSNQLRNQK
UniProt Q4ZIN3: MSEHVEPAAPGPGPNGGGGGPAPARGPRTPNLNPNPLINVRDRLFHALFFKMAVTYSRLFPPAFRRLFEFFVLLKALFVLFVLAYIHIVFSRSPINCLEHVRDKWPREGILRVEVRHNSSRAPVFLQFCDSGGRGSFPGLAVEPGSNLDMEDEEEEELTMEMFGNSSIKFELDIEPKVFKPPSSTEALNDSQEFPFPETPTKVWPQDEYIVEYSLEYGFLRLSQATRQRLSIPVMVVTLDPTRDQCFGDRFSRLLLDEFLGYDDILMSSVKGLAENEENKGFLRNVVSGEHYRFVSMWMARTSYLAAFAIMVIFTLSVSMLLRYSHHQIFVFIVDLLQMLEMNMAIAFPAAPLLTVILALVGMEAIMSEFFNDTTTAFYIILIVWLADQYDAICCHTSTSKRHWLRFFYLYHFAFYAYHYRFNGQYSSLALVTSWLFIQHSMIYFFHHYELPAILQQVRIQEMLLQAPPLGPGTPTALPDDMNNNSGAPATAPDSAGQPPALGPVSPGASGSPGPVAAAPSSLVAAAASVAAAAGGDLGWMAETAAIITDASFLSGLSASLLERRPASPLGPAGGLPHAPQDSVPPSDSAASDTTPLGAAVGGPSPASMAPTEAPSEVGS
UniProt P18085: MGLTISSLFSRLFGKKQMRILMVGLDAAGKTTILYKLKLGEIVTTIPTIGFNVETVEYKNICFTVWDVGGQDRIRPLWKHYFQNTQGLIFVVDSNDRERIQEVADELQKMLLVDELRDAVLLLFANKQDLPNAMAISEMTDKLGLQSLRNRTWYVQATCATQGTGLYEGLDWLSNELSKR

T1: TMUB1-L (long, full-length isoform of transmembrane and ubiquitin-like domain-containing 1) (human (endogenous in HeLa)) (UniProt Q9BVT8)
T1 sequence: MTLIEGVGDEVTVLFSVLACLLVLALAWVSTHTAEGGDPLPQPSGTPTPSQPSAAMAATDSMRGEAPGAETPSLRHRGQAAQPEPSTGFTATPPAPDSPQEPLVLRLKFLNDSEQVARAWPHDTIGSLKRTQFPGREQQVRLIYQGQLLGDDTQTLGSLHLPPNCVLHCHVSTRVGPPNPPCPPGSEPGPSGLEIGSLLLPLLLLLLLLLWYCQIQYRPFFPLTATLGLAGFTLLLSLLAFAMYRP

T2: ERLIN2 (ER lipid raft-associated 2) (human (endogenous in HeLa)) (UniProt O94905)
T2 sequence: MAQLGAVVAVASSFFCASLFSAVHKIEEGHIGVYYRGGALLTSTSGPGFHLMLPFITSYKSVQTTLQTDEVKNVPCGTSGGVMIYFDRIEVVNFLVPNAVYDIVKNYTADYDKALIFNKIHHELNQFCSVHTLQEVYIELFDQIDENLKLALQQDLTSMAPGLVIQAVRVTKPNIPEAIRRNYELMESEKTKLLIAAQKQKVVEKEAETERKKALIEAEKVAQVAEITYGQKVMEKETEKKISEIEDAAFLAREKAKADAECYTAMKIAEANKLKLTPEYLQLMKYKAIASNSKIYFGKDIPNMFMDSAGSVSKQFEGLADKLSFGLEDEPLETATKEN

T3: TMUB1 (transmembrane and ubiquitin-like domain-containing 1), isoforms not told apart (human (endogenous in HeLa)) (UniProt Q9BVT8)
T3 sequence: T1 sequence

B1: ERLIN1 (ER lipid raft-associated 1) (protein, UniProt O75477 1-348)
chain: MNMTQARVLVAAVVGLVAVLLYASIHKIEEGHLAVYYRGGALLTSPSGPGYHIMLPFITTFRSVQTTLQTDEVKNVPCGTSGGVMIYIDRIEVVNMLAPYAVFDIVRNYTADYDKTLIFNKIHHELNQFCSAHTLQEVYIELFDQIDENLKQALQKDLNLMAPGLTIQAVRVTKPKIPEAIRRNFELMEAEKTKLLIAAQKQKVVEKEAETERKKAVIEAEKIAQVAKIRFQQKVMEKETEKRISEIEDAAFLAREKAKADAEYYAAHKYATSNKHKLTPEYLELKKYQAIASNSKIYFGSNIPNMFVDSSCALKYSDIRTGRESSLPSKEALEPSGENVIQNKESTG
B2: ERLIN2 (ER lipid raft-associated 2) (protein, UniProt O94905 1-339)
chain: T2 sequence
B3: RNF185 (protein, UniProt Q96GF1 1-192)
chain: MASKGPSASASPENSSAGGPSGSSNGAGESGGQDSTFECNICLDTAKDAVISLCGHLFCWPCLHQWLETRPNRQVCPVCKAGISRDKVIPLYGRGSTGQQDPREKTPPRPQGQRPEPENRGGFQGFGFGDGGFQMSFGIGAFPFGIFATAFNINDGRPPPAVPGTPQYVDEQFLSRLFLFVALVIMFWLLIA
B4: FAF2 (FAS-associated factor 2) (protein, UniProt Q96CS3 1-445)
chain: MAAPEERDLTQEQTEKLLQFQDLTGIESMDQCRHTLEQHNWNIEAAVQDRLNEQEGVPSVFNPPPSRPLQVNTADHRIYSYVVSRPQPRGLLGWGYYLIMLPFRFTYYTILDIFRFALRFIRPDPRSRVTDPVGDIVSFMHSFEEKYGRAHPVFYQGTYSQALNDAKRELRFLLVYLHGDDHQDSDEFCRNTLCAPEVISLINTRMLFWACSTNKPEGYRVSQALRENTYPFLAMIMLKDRRMTVVGRLEGLIQPDDLINQLTFIMDANQTYLVSERLEREERNQTQVLRQQQDEAYLASLRADQEKERKKREERERKRRKEEEVQQQKLAEERRRQNLQEEKERKLECLPPEPSPDDPESVKIIFKLPNDSRVERRFHFSQSLTVIHDFLFSLKESPEKFQIEANFPRRVLPCIPSEEWPNPPTLQEAGLSHTEVLFVQDLTDE
B5: RNF170 (RING finger protein 170) (protein, UniProt Q96K19 1-258)
chain: MAKYQGEVQSLKLDDDSVIEGVSDQVLVAVVVSFALIATLVYALFRNVHQNIHPENQELVRVLREQLQTEQDAPAATRQQFYTDMYCPICLHQASFPVETNCGHLFCGACIIAYWRYGSWLGAISCPICRQTVTLLLTVFGEDDQSQDVLRLHQDINDYNRRFSGQPRSIMERIMDLPTLLRHAFREMFSVGGLFWMFRIRIILCLMGAFFYLISPLDFVPEALFGILGFLDDFFVIFLLLIYISIMYREVITQRLTR
B6: trans-2,3-enoyl-CoA reductase (TECR) (protein, UniProt Q9NZ01 1-308)
chain: MKHYEVEILDAKTREKLCFLDKVEPHATIAEIKNLFTKTHPQWYPARQSLRLDPKGKSLKDEDVLQKLPVGTTATLYFRDLGAQISWVTVFLTEYAGPLFIYLLFYFRVPFIYGHKYDFTSSRHTVVHLACICHSFHYIKRLLETLFVHRFSHGTMPLRNIFKNCTYYWGFAAWMAYYINHPLYTPPTYGAQQVKLALAIFVICQLGNFSIHMALRDLRPAGSKTRKIPYPTKNPFTWLFLLVSCPNYTYEVGSWIGFAIMTQCLPVALFSLVGFTQMTIWAKGKHRSYLKEFRDYPPLRMPIIPFLL
B7: flotillin-1 (FLOT1) (protein, UniProt O75955 1-427)
chain: MFFTCGPNEAMVVSGFCRSPPVMVAGGRVFVLPCIQQIQRISLNTLTLNVKSEKVYTRHGVPISVTGIAQVKIQGQNKEMLAAACQMFLGKTEAEIAHIALETLEGHQRAIMAHMTVEEIYKDRQKFSEQVFKVASSDLVNMGISVVSYTLKDIHDDQDYLHSLGKARTAQVQKDARIGEAEAKRDAGIREAKAKQEKVSAQYLSEIEMAKAQRDYELKKAAYDIEVNTRRAQADLAYQLQVAKTKQQIEEQRVQVQVVERAQQVAVQEQEIARREKELEARVRKPAEAERYKLERLAEAEKSQLIMQAEAEAASVRMRGEAEAFAIGARARAEAEQMAKKAEAFQLYQEAAQLDMLLEKLPQVAEEISGPLTSANKITLVSSGSGTMGAAKVTGEVLDILTRLPESVERLTGVSISQVNHKPLRTA
B8: stomatin (STOM) (protein, UniProt P27105 1-288)
chain: MAEKRHTRDSEAQRLPDSFKDSPSKGLGPCGWILVAFSFLFTVITFPISIWMCIKIIKEYERAIIFRLGRILQGGAKGPGLFFILPCTDSFIKVDMRTISFDIPPQEILTKDSVTISVDGVVYYRVQNATLAVANITNADSATRLLAQTTLRNVLGTKNLSQILSDREEIAHNMQSTLDDATDAWGIKVERVEIKDVKLPVQLQRAMAAEAEASREARAKVIAAEGEMNASRALKEASMVITESPAALQLRYLQTLTTIAAEKNSTIVFPLPIDMLQGIIGAKHSHLG
B9: ATP-binding cassette subfamily D member 3 (ABCD3) (protein, UniProt P28288 1-659)
chain: MAAFSKYLTARNSSLAGAAFLLLCLLHKRRRALGLHGKKSGKPPLQNNEKEGKKERAVVDKVFFSRLIQILKIMVPRTFCKETGYLVLIAVMLVSRTYCDVWMIQNGTLIESGIIGRSRKDFKRYLLNFIAAMPLISLVNNFLKYGLNELKLCFRVRLTKYLYEEYLQAFTYYKMGNLDNRIANPDQLLTQDVEKFCNSVVDLYSNLSKPFLDIVLYIFKLTSAIGAQGPASMMAYLVVSGLFLTRLRRPIGKMTITEQKYEGEYRYVNSRLITNSEEIAFYNGNKREKQTVHSVFRKLVEHLHNFILFRFSMGFIDSIIAKYLATVVGYLVVSRPFLDLSHPRHLKSTHSELLEDYYQSGRMLLRMSQALGRIVLAGREMTRLAGFTARITELMQVLKDLNHGKYERTMVSQQEKGIEGVQVIPLIPGAGEIIIADNIIKFDHVPLATPNGDVLIRDLNFEVRSGANVLICGPNGCGKSSLFRVLGELWPLFGGRLTKPERGKLFYVPQRPYMTLGTLRDQVIYPDGREDQKRKGISDLVLKEYLDNVQLGHILEREGGWDSVQDWMDVLSGGEKQRMAMARLFYHKPQFAILDECTSAVSVDVEGYIYSHCRKVGITLFTVSHRKSLWKHHEYYLHMDGRGNYEFKQITEDTVEFGS

Columns and labels:
[1] = molecular target: T1, TMUB1-L (long, full-length isoform of transmembrane and ubiquitin-like domain-containing 1) (human (endogenous in HeLa)); assay: affinity purification with mass spectrometry; IP of endogenous TMUB1 from HeLa lysate (IP buffer with 0.5% Triton X-100); WT compared with TMUB1-L KO cells as control; MS, N = 4
[2] = molecular target: T2, ERLIN2 (ER lipid raft-associated 2) (human (endogenous in HeLa)); assay: affinity purification with mass spectrometry; IP of endogenous ERLIN2 with anti-ERLIN2 antibody and Protein G Dynabeads from HeLa lysate (IP buffer: Tris-HCl pH 7.4 50 mM, KCl 50 mM, Triton X-100 0.5%; 4°C); WT compared with ERLIN1/ERLIN2 DKO cells; label-free quantitative MS, N = 4
[3] = molecular target: T3, TMUB1 (transmembrane and ubiquitin-like domain-containing 1), isoforms not told apart (human (endogenous in HeLa)); assay: affinity purification with mass spectrometry; IP with antibodies detecting both TMUB1 isoforms against a control IgG (anti-RFP) from lysates of WT and of ERLIN1/ERLIN2 DKO HeLa cells; MS, N = 4
[4] = molecular target: TMUB1-S (short isoform of TMUB1) (human (endogenous in HeLa)); assay: affinity purification with mass spectrometry; IP of endogenous TMUB1 from HeLa lysate (IP buffer with 0.5% Triton X-100); WT compared with TMUB1-L KO cells as control; MS, N = 4

Molecule	binding [1]	binding [2]	further results
VCP (valosin-containing protein) (from UniProt P55072 1-806)	binds		
ARF1 (ADP-ribosylation factor 1) (from UniProt P84077 1-181)		binds	
TMEM259 (transmembrane protein 259) (from UniProt Q4ZIN3 1-620)	binds	binds	binding [3]: binds
ARF4 (ADP-ribosylation factor 4) (from UniProt P18085 1-180)		binds	
B1	binds		binding [4]: no binding
B2	binds		
B3	binds		binding [3]: binds
B4	binds		
B5		binds	
B6		binds	
B7		binds	
B8		binds	
B9		binds	
